# Data reported in publication PMC12370185.
# This is one part of the list.
# Legend:
# Assay in all cases: EMSA with sequencing
# Conditions in all cases: 10 mM Tris-Cl pH 7.5, 50 mM NaCl, 1 mM DTT, 0.25 mg/ml BSA, 2 mM MgCl2, 0.025% Nonidet P-40, 5% glycerol; 28 nM nucleosome library; 10 min on ice then 30 min …; high values mean tight binding; double strand, one strand shown
# KLF4 + histone octamer = test system: KLF4 + histone octamer
# OCT4 + histone octamer = test system: OCT4 + histone octamer
# SOX2 + histone octamer = test system: SOX2 + histone octamer
# [1] = test system: c-MYC + MAX + histone octamer
Sequence,binding signal (log2 relative supershift) (KLF4 + histone octamer),binding signal (log2 relative supershift) (OCT4 + histone octamer),binding signal (log2 relative supershift) (SOX2 + histone octamer),binding signal (log2 relative supershift) [1]
GATGGACCCTATACGCGGCGACAGCACAAAAGGAACTATCCCAGGTCACACGAGAAACCCGGATGTCATCATAGCACTGGTCATTTTTCACCGCTTGCCCAAATACATGCCGAAACTTGCTCTGTCGTACCACTCGCCTCATCGTGTCTGCAAAGGAAGAGTGAGAATTATGTTAGAATTATGCACCAAACTGAAAGCTTTACTTTTACATGCCAGTCGGATAGTGTTCC,0.825,0.826,1.44,0.357
GATGGACCCTATACGCGGCTAGCTGTGTTATTCCTTAACTGCATGAACATTGGCTGGACAAAGAACCTAAGTTTCTGCCTCTGTAAAATGGGCATAATAAAGTGTCACCCTCCCTGATGGTTCATGTGGATGAATGAGCGCACACGTTGTGACTATGTGAGTTGCAGAGCACTACATCCTTATGGAGAAAAGATCATAAAGCCTTATCAGTGCCAGTCGGATAGTGTTCC,0.203,0.0687,1.25,0.0619
GATGGACCCTATACGCGGCGAATTAAGCTTTGGAATTGCAAACGTCAGAATTGAGACTGCATTGATAAGCAGAAAAGCAAATAATGCTGACCTGAGATCTTCAACCTTCTCTCCTGTGGCTTTCATGAGTCTTGAAAGGAGACTGGTGCTTACTAAGACCACTGATTTGTACTAAGGAGCGTTTGCATCTGGTGTCTTCCCTTGTGCTGATGCCAGTCGGATAGTGTTCC,0.595,0.0297,0.811,0.0999
GATGGACCCTATACGCGGCTATGTCCTTGGGATTCAGGGCAATTAATGTTCTCTTTCTCCTGTTCCCTATTTAGCACACAGCAAGGCTGGCCCGTTTGAGCATCCTCATGTGATCCTTGATTGCATTACAAAATATGATCAAAAGAATCTACCTCAATGGGCATGATTGTGCTGCTTGCTAAACTCAATGGCAATTTATTTAAATATGATTGCCAGTCGGATAGTGTTCC,0.58,1.93,0.88,0.485
GATGGACCCTATACGCGGCTGAATGCCTGTGTGTTCAGTGAACTCTTCCCCTTTGGTGGGTTGGAACTCAGATGTATCCGAATCCCCTGTGAGCTCCGAGAATTGTTCAGCTTACAGCTGCCTGTACATTCTTTGCTCAGACCCATGGAGCTTTGTGTTATGCACATACAGCTTAGTATTCAGCCAGAGCCTCCATTGGACCCACAGGCATGCCAGTCGGATAGTGTTCC,1.79,0.161,0.995,0.672
GATGGACCCTATACGCGGCATGATTCTCGCCAGTTAAGTGGTATTAACATATCCTCAGTGGTGAGTATTAACATGGAACTTACTCCAACAATACAGATGCTGAATAAATGTAGTCTAAGTGAAGGAAGAAGGAAAGGTGGGAGCTGCCATCACTCAGAATTGTCCAGCAGGGATTGTGCAAGCTTGTGAATAAAGACACAGCGACTTTACTGCCAGTCGGATAGTGTTCC,0.686,1.45,0.842,0.505
GATGGACCCTATACGCGGCAGACAACTGTCACTAGGTCGTGTTTTCCCAAAGGAACTTCAGATGATTCTAACACCTCAATTTGCATGGTGCAATTCAATGTGAGAGTCAGAGTGGTACCACTCCTAACTCTACTTTTGCACTTAAAACTGTCCAAGTTCCACCCACAGTCAGCAACAAAGGTGTGTACTTGTCCCTAGTGTGTGGAACAATGCCAGTCGGATAGTGTTCC,1.04,0.56,1.67,0.238
GATGGACCCTATACGCGGCCTTGGTAATCTTGAACCAGATGTCAGTCATGAATTTAATCCTCTTGGGAGGATTCTGCAATGCAGAATGCAATGCAATGCAATGCAGATGCAATGCAATGCAGAACAAGGCTGAGCTAGGAAACGTATTCAAGGTTTGCATTTAAGCTTTGTTATGCAGGACCAACACAGCCTTTATTCTGGGGCCAGTTTTGCCAGTCGGATAGTGTTCC,0.369,0.544,1.76,0.187
GATGGACCCTATACGCGGCGGCTCTGGTCTAGAATGGCACCTTGGCAAGTCAGTTTTGAGTGTTCACAGGAGGTAGACTACTCCTGCCTGTTTGGTCTTTCTTATGGTAGACCTTCACCCAGTCAATAATGGAGTGAATAAAACTCCTCTGTTTCAGCTACCGCTATCTAATTGGCCAGCACAGTCTTTTAGTGGATACCGCTGGCTATTTGCCAGTCGGATAGTGTTCC,0.953,0.432,0.216,0.542
GATGGACCCTATACGCGGCCTATTTGGGGCCTATTGCTATAGCAGCTACTGTTTAGCTTCCTGGATCATCACTACAGATAGCAATCTGGCTTCCTGCAGGTCTGACTTACAGCAGGATGGCTTCTTGTGTTGCTCATTGCAGATAAGGAGCTGGTTTCCTGGGCAGGTTTCTACAAGTTGTGGATCAAAGTTCTATTTTTATATATGGTCTGCCAGTCGGATAGTGTTCC,0.911,0.0393,0.534,0.00767

# Reprinted at random: 2 entries already listed, in no set order.
Sequence,binding signal (log2 relative supershift) (KLF4 + histone octamer),binding signal (log2 relative supershift) (OCT4 + histone octamer),binding signal (log2 relative supershift) (SOX2 + histone octamer),binding signal (log2 relative supershift) [1]
GATGGACCCTATACGCGGCTGAATGCCTGTGTGTTCAGTGAACTCTTCCCCTTTGGTGGGTTGGAACTCAGATGTATCCGAATCCCCTGTGAGCTCCGAGAATTGTTCAGCTTACAGCTGCCTGTACATTCTTTGCTCAGACCCATGGAGCTTTGTGTTATGCACATACAGCTTAGTATTCAGCCAGAGCCTCCATTGGACCCACAGGCATGCCAGTCGGATAGTGTTCC,1.79,0.161,0.995,0.672
GATGGACCCTATACGCGGCCTATTTGGGGCCTATTGCTATAGCAGCTACTGTTTAGCTTCCTGGATCATCACTACAGATAGCAATCTGGCTTCCTGCAGGTCTGACTTACAGCAGGATGGCTTCTTGTGTTGCTCATTGCAGATAAGGAGCTGGTTTCCTGGGCAGGTTTCTACAAGTTGTGGATCAAAGTTCTATTTTTATATATGGTCTGCCAGTCGGATAGTGTTCC,0.911,0.0393,0.534,0.00767
